Reference: the supplement of paper PMC10849652
This is one part of the list.

Chains of the proteins cited; added tags and fusions are not shown. Lines headed by an entry give the natural chain unless they say otherwise; changes in a name come on top.
UniProt Q14103: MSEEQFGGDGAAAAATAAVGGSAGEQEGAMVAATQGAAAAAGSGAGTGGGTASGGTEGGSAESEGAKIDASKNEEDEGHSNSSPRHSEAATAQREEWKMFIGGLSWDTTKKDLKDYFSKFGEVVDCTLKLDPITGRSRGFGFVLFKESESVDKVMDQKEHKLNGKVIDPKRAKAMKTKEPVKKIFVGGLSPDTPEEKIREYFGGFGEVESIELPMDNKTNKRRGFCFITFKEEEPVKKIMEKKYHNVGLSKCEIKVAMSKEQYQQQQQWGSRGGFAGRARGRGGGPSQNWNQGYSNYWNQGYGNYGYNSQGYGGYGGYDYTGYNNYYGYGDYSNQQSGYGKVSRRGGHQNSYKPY
UniProt P50747: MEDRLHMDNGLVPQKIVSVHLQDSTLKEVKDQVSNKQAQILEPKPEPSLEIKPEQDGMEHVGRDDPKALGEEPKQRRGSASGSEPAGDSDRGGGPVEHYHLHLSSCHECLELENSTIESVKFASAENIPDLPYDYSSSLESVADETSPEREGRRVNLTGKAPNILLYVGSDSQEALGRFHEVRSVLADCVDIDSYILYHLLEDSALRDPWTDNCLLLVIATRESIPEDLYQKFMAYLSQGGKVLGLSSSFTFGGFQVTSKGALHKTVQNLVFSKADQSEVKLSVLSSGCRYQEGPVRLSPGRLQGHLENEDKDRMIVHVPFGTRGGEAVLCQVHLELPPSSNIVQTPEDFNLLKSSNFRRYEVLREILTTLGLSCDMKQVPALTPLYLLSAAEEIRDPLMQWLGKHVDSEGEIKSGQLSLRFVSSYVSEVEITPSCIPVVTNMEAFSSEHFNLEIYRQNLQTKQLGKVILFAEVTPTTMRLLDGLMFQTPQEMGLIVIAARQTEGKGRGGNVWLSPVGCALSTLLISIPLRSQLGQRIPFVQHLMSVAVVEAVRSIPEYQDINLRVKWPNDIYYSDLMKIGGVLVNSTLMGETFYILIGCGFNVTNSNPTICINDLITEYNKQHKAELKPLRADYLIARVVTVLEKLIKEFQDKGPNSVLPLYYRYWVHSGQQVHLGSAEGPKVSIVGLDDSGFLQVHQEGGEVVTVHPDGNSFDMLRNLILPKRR
UniProt Q9NQE9: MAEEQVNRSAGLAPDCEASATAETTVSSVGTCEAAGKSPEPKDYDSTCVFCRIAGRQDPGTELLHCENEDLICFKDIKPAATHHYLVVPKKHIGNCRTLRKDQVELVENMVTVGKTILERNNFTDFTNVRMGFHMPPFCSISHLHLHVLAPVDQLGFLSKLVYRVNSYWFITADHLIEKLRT
UniProt P61604, whole entry, looked up: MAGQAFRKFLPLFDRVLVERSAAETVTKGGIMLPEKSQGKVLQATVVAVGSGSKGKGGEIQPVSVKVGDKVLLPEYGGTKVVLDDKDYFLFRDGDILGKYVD
UniProt Q86YM7: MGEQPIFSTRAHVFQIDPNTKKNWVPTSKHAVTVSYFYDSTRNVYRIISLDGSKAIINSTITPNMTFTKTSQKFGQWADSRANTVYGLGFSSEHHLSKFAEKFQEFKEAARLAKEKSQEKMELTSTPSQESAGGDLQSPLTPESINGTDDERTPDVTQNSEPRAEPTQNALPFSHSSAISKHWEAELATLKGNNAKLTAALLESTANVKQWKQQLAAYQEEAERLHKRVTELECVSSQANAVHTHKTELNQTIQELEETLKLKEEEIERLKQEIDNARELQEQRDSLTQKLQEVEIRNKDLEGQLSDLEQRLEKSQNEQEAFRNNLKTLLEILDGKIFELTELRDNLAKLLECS
UniProt Q9BTY7: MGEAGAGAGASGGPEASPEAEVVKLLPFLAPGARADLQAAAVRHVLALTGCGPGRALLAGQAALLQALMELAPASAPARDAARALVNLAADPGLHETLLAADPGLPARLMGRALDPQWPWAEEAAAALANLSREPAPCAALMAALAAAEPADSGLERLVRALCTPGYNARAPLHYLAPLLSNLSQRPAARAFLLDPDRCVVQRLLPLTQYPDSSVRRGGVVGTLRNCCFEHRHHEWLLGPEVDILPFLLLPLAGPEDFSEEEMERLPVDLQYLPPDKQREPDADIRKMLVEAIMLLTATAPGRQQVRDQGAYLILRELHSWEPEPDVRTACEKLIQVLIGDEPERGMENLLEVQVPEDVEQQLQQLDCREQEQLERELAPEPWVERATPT
UniProt Q9P0W2: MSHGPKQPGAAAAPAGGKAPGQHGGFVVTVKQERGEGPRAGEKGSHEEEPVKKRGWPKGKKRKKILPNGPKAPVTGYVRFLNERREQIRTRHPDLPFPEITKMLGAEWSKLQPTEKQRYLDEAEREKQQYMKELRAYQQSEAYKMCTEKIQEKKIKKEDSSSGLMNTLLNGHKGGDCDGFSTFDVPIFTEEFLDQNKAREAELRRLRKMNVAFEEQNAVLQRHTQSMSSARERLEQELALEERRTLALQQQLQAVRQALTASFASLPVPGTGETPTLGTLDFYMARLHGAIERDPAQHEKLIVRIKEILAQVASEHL
UniProt Q00613: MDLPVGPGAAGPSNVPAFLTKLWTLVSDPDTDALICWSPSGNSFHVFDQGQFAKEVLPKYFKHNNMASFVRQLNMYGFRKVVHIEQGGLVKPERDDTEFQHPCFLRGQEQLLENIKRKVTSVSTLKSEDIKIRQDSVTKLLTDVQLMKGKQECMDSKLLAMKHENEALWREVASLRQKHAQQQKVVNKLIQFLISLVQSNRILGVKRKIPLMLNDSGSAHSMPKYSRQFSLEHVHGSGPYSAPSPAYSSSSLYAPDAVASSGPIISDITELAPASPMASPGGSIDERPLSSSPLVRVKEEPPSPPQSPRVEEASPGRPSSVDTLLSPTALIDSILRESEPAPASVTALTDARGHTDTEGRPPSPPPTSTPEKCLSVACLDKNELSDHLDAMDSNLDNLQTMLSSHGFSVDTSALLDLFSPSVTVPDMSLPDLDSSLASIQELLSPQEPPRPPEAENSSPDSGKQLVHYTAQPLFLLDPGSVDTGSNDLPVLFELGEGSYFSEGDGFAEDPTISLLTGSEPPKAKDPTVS
UniProt Q6NVY1: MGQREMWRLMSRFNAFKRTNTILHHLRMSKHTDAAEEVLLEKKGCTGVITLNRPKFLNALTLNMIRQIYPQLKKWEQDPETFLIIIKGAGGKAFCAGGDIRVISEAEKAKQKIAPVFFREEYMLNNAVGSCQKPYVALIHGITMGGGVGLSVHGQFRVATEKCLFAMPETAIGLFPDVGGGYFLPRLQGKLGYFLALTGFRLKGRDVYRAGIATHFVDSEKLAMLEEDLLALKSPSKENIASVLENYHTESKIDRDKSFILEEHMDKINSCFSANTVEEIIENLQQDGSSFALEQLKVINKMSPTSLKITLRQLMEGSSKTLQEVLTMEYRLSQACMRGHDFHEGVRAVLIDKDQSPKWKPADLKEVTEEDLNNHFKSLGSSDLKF
UniProt P22626: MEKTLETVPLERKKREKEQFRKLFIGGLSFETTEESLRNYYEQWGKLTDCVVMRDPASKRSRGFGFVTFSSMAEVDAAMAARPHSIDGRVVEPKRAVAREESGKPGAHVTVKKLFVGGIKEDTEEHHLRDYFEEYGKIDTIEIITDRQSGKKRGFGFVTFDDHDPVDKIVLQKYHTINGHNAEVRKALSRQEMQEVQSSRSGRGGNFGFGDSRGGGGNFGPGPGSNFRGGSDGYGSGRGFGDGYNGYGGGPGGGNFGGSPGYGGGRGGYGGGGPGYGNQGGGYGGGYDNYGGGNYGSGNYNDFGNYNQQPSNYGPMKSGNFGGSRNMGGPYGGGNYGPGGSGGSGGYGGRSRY
UniProt Q9NX55: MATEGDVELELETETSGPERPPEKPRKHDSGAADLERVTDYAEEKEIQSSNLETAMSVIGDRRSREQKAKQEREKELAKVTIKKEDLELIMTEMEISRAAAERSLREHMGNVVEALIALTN
UniProt Q8TCT9: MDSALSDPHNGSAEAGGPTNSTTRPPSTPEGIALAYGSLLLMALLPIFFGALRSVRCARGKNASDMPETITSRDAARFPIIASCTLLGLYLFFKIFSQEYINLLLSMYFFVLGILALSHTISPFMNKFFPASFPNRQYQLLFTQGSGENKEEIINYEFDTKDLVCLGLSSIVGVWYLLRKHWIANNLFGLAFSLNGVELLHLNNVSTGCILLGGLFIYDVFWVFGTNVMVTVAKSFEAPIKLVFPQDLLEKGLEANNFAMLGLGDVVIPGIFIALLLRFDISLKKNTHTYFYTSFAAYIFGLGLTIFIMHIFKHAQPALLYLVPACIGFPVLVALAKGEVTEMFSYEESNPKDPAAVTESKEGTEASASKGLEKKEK
UniProt Q58FG1, whole entry, looked up: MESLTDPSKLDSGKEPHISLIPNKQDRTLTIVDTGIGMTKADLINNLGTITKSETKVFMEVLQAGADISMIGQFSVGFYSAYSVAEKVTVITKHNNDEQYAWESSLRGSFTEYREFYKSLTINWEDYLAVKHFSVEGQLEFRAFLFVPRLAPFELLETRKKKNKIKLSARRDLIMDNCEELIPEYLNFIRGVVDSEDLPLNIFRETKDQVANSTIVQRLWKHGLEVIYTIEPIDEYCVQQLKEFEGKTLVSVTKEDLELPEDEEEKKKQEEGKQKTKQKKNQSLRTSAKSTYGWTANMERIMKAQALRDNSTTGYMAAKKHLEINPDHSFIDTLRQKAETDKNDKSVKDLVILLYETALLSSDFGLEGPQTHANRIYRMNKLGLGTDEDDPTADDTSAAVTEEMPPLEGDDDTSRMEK
UniProt Q9NWT6: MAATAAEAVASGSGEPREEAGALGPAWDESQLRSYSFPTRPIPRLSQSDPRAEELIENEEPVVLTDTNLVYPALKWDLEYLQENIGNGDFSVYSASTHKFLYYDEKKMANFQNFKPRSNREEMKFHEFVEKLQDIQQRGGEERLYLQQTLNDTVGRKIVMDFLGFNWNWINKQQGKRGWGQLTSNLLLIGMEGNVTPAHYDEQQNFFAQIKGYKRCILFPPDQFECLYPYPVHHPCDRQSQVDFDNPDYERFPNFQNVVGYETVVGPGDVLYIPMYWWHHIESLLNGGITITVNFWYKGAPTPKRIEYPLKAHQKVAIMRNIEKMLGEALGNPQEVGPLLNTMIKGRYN
UniProt P34931, whole entry, looked up: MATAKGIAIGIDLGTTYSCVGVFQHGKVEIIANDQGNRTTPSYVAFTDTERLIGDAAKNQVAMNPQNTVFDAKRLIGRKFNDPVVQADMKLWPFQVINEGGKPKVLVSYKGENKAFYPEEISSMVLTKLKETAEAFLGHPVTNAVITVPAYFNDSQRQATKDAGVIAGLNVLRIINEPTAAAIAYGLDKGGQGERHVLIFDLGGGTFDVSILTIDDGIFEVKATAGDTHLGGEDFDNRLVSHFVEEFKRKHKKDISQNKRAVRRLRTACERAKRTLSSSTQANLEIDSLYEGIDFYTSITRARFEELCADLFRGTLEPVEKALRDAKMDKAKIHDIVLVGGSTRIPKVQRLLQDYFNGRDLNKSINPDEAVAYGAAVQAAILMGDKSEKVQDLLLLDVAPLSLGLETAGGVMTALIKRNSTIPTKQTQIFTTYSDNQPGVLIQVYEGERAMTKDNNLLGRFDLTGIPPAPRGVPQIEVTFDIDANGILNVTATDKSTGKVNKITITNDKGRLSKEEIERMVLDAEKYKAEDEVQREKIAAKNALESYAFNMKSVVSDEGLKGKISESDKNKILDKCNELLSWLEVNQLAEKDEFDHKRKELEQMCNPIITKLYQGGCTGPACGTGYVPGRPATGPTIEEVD
UniProt P17066, whole entry, looked up: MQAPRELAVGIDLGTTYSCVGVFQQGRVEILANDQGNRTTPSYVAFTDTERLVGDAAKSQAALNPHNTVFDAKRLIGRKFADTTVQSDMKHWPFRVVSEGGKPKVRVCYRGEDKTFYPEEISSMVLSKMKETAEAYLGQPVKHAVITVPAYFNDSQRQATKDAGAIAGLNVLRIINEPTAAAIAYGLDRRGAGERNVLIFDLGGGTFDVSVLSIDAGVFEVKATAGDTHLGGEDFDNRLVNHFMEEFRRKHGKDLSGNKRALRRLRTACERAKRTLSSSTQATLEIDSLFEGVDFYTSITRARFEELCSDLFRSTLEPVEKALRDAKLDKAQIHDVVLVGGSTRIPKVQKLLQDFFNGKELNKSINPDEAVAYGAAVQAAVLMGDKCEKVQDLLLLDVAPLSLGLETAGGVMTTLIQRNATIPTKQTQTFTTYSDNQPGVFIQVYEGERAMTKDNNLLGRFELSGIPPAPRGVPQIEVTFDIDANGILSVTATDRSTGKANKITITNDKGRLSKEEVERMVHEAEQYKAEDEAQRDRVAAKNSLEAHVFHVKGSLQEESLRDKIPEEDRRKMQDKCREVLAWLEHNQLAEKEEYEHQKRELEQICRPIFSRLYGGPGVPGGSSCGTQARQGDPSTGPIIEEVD
UniProt H0YH80: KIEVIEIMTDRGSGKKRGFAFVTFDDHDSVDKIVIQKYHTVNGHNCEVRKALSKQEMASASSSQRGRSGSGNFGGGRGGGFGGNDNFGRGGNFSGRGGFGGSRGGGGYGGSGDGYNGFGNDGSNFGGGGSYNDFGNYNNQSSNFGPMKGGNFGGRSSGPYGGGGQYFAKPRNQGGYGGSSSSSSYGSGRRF

Key:
Experiment in all cases: log2 fold change, soluble protein after heating vs DMSO (PISA); higher = thermal stabilisation; K562 cells, 10 uM, 30 min; active = over 0.2 and 3.5 SD of the protein, either way, in both replicates (recomputed)
bafetinib = compound: Cc1ccc(NC(=O)c2ccc(CN3CC[C@H](N(C)C)C3)c(C(F)(F)F)c2)cc1Nc1nccc(-c2cncnc2)n1 [bafetinib]
Method in brief: (§1)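 K562 cells at 2×10^6 cells/mL were treated for 30 min with 10 μM compound, and aliquots were heated for 3 min over 48°C-58°C before pooling. Extraction used PBS with 0.5% NP-40 at 4°C, and soluble protein was the supernatant after 21,000xg for 90 min, measured by TMTpro 16plex LC-MS/MS with channel sums equalised. Thermal stability values, relative to control samples and from duplicates, are log2 fold changes.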

[1] = compound: Cc1cccc(CC(=O)N2CCc3c2ccc(-c2cn(C)c4ncnc(N)c24)c3F)n1
Method in brief: as §1

nilotinib = compound: Cc1cn(-c2cc(NC(=O)c3ccc(C)c(Nc4nccc(-c5cccnc5)n4)c3)cc(C(F)(F)F)c2)cn1 [nilotinib]
Method in brief: as §1

[2] = compound: Cc1nc(Nc2n[nH]c3c2CN(C(=O)N[C@H](CN(C)C)c2ccccc2)C3(C)C)c2sccc2n1
Method in brief: as §1

dasatinib = compound: Cc1nc(Nc2ncc(C(=O)Nc3c(C)cccc3Cl)s2)cc(N2CCN(CCO)CC2)n1 [dasatinib]
Method in brief: as §1

[3] = compound: Cc1ncc(-c2ccnc(Nc3ccc(S(C)(=O)=O)cc3)n2)n1C(C)C
Method in brief: as §1

[4] = compound: Cn1cc(-c2ccc3c(c2)CCN3C(=O)Cc2cccc(C(F)(F)F)c2)c2c(N)ncnc21
Method in brief: as §1

[5] = compound: Cn1cc(-c2ccc3nnc(C(F)(F)c4ccc5ncccc5c4)n3n2)cn1
Method in brief: as §1

tipifarnib = compound: Cn1cncc1[C@@](N)(c1ccc(Cl)cc1)c1ccc2c(c1)c(-c1cccc(Cl)c1)cc(=O)n2C [tipifarnib]
Method in brief: as §1

mubritinib = compound: FC(F)(F)c1ccc(/C=C/c2nc(COc3ccc(CCCCn4ccnn4)cc3)co2)cc1 [mubritinib]
Method in brief: as §1

Measured: log2 fold change

HRAS (UniProt P01112)
inactive: bafetinib -0.033 | [1] 0.063 | nilotinib 0.109 | [2] 0.024 | dasatinib 0 | [3] 0.003 | [4] 0.041 | [5] -0.007 | tipifarnib 0.006 | mubritinib 0.033

HNRNPD (UniProt Q14103)
inactive: bafetinib 0.104 | [1] -0.081 | nilotinib -0.013 | [2] 0.145 | dasatinib 0.17 | [3] 0.083 | [4] -0.117 | [5] -0.055 | tipifarnib 0.078 | mubritinib -0.088

HNRNPD isoform 4 (UniProt Q14103)
inactive: bafetinib 0.073 | [1] -0.02 | nilotinib -0.058 | [2] 0.109 | dasatinib 0.372 | [3] -0.016 | [4] -0.111 | [5] -0.079 | tipifarnib 0.07 | mubritinib -0.032

HLCS (UniProt P50747)
inactive: bafetinib -0.076 | [1] -0.005 | nilotinib -0.014 | [2] -0.015 | dasatinib -0.022 | [3] 0.016 | [4] -0.03 | [5] -0.038 | tipifarnib -0.112 | mubritinib 0.012

HINT3 (UniProt Q9NQE9)
inactive: bafetinib -0.157 | [1] 0.009 | nilotinib 0.02 | [2] -0.059 | dasatinib 0.051 | [3] -0.035 | [4] 0.025 | [5] -0.071 | tipifarnib 0.011 | mubritinib 0.097

HSPE1 (UniProt P61604)
inactive: bafetinib -0.069 | [1] -0.038 | nilotinib 0.013 | [2] 0.032 | dasatinib 0.057 | [3] -0.027 | [4] 0.066 | [5] 0.113 | tipifarnib -0.022 | mubritinib 0.02

HOMER1 (UniProt Q86YM7)
inactive: bafetinib -0.016 | [1] -0.002 | nilotinib -0.02 | [2] 0.046 | dasatinib -0.054 | [3] -0.008 | [4] 0.003 | [5] 0.117 | tipifarnib -0.031 | mubritinib 0.089

HGH1 (UniProt Q9BTY7)
inactive: bafetinib 0.043 | [1] 0.038 | nilotinib -0.013 | [2] -0.064 | dasatinib -0.042 | [3] -0.006 | [4] -0.037 | [5] -0.089 | tipifarnib -0.003 | mubritinib -0.005

Quoted from the results shown (five entries):
HLCS (UniProt P50747)
inactive: bafetinib -0.076 | [1] -0.005 | nilotinib -0.014 | [2] -0.015 | dasatinib -0.022 | [3] 0.016 | [4] -0.03 | [5] -0.038 | tipifarnib -0.112 | mubritinib 0.012

HINT3 (UniProt Q9NQE9)
inactive: bafetinib -0.157 | [1] 0.009 | nilotinib 0.02 | [2] -0.059 | dasatinib 0.051 | [3] -0.035 | [4] 0.025 | [5] -0.071 | tipifarnib 0.011 | mubritinib 0.097

HSPE1 (UniProt P61604)
inactive: bafetinib -0.069 | [1] -0.038 | nilotinib 0.013 | [2] 0.032 | dasatinib 0.057 | [3] -0.027 | [4] 0.066 | [5] 0.113 | tipifarnib -0.022 | mubritinib 0.02

HOMER1 (UniProt Q86YM7)
inactive: bafetinib -0.016 | [1] -0.002 | nilotinib -0.02 | [2] 0.046 | dasatinib -0.054 | [3] -0.008 | [4] 0.003 | [5] 0.117 | tipifarnib -0.031 | mubritinib 0.089

HGH1 (UniProt Q9BTY7)
inactive: bafetinib 0.043 | [1] 0.038 | nilotinib -0.013 | [2] -0.064 | dasatinib -0.042 | [3] -0.006 | [4] -0.037 | [5] -0.089 | tipifarnib -0.003 | mubritinib -0.005

(listing goes on)

HUWE1, A0A087X1S3
inactive: bafetinib 0.029 | [1] 0.085 | dasatinib -0.087 | [4] -0.079

HMG20B (UniProt Q9P0W2)
inactive: bafetinib -0.014 | [1] -0.226 | nilotinib -0.064 | [2] -0.179 | [3] -0.198 | [4] 0.065

HSF1 (UniProt Q00613)
inactive: bafetinib 0.019 | [1] 0.025 | nilotinib -0.103 | [2] -0.109 | dasatinib -0.362 | [3] -0.085 | [4] 0.217 | tipifarnib -0.074 | mubritinib -0.019

HNRNPLL (UniProt Q8WVV9)
inactive: bafetinib -0.035 | [1] 0.069 | nilotinib -0.028 | [2] -0.32 | dasatinib -0.038 | [3] -0.092 | [4] 0.059 | [5] 0.057 | tipifarnib -0.012 | mubritinib 0.028

HIBCH (UniProt Q6NVY1)
inactive: bafetinib 0.011 | [1] -0.008 | nilotinib -0.003 | [2] 0.021 | dasatinib -0.092 | [3] -0.019 | [4] 0.09 | [5] 0.047 | tipifarnib -0.102 | mubritinib -0.028

HNRNPA2B1 (UniProt P22626)
inactive: bafetinib 0.06 | [1] -0.009 | nilotinib -0.027 | [2] 0.068 | dasatinib 0.363 | [3] 0.185 | [4] -0.383 | [5] -0.243 | tipifarnib 0.217 | mubritinib -0.252

HNRNPK isoform 3 (UniProt P61978)
inactive: bafetinib 0.003 | [1] -0.18 | nilotinib -0.115 | [2] -0.022 | dasatinib 0.021 | [3] 0.143 | [5] -0.002 | mubritinib -0.101

HYPK (UniProt Q9NX55)
inactive: bafetinib 0.014 | [1] -0.009 | nilotinib 0.028 | [2] 0.017 | dasatinib 0.004 | [3] -0.01 | [4] 0.089 | [5] 0.023 | tipifarnib -0.016 | mubritinib 0.001

HM13 (UniProt Q8TCT9)
inactive: bafetinib -0.022 | [1] -0.034 | nilotinib -0.029 | [2] -0.002 | [3] -0.005 | [4] 0.086 | [5] 0.054 | tipifarnib 0.008 | mubritinib -0.01

HSP90AA4P (UniProt Q58FG1)
inactive: bafetinib -0.148 | [1] -0.23 | nilotinib 0.074 | [2] 0.124 | dasatinib 0.108 | [3] -0.049 | [4] -0.003 | [5] 0 | tipifarnib 0.091 | mubritinib 0.029

HIF1AN (UniProt Q9NWT6)
inactive: bafetinib -0.086 | [1] 0.009 | nilotinib -0.057 | [2] -0.095 | dasatinib 0.007 | [3] 0.043 | [5] -0.023 | tipifarnib 0.118 | mubritinib 0.049

HSPA1L (UniProt P34931)
inactive: bafetinib -0.073 | [1] 0.02 | nilotinib 0.1 | [2] 0.078 | dasatinib 0.034 | [3] 0.058 | [4] 0.244 | [5] 0.063 | tipifarnib 0.001 | mubritinib -0.101

HSPA6 (UniProt P17066)
inactive: bafetinib -0.001 | [1] -0.037 | nilotinib 0.03 | [2] 0.001 | dasatinib 0.078 | [3] -0.02 | [4] -0.039 | [5] 0.009 | tipifarnib 0.024 | mubritinib -0.018

HNRNPA1 (UniProt H0YH80)
inactive: bafetinib 0.209 | [1] 0.017 | nilotinib -0.086 | [2] 0.137 | [3] 0.138 | [4] -0.239 | [5] -0.28 | mubritinib -0.264

HIST2H2AA3 (UniProt Q6FI13)
inactive: bafetinib 0.149 | [1] -0.139 | nilotinib 0.072 | [2] -0.057 | dasatinib 0.033 | [3] 0.012 | [4] -0.349 | [5] -0.082 | mubritinib -0.054
